Data published in paper PMC10896723.

Amino acid sequences for entries named in this document (tags omitted).
UniProt Q76MZ3: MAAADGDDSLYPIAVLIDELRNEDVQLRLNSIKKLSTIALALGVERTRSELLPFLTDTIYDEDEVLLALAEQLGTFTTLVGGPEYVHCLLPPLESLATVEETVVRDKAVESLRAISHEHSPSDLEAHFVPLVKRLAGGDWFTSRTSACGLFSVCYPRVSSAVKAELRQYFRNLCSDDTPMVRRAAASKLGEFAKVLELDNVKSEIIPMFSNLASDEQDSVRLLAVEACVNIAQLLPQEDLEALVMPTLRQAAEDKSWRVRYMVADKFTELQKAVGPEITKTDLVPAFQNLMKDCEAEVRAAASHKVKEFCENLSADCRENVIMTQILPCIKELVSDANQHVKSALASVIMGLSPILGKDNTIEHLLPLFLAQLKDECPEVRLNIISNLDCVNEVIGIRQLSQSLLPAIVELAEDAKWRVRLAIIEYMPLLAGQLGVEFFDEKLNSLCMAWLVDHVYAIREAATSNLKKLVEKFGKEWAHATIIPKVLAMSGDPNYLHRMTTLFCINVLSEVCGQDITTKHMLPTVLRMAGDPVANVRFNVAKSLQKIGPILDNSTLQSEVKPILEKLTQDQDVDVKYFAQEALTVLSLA

Target: T1, RalA^G23V ectopically expressed in liver (UniProt P11233)
T1 sequence: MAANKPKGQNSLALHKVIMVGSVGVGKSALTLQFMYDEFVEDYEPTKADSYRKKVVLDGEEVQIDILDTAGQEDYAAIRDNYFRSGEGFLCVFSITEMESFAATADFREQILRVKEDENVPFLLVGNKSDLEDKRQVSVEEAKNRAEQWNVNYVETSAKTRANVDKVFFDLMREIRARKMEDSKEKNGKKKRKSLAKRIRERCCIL
Experiment: affinity purification with mass spectrometry; WT, G23V or S28N forms of RalA ectopically expressed in liver; proteomics search for interacting proteins

Substance: protein phosphatase 2A subunit Aα (PP2Aa), from liver (from UniProt Q76MZ3 1-589)
- binding: binds

These are yes or no findings as the source states them, for the method shown. In cells and extracts the contact can be indirect. These calls come from enrichment with a bait or labelling near it, and not all partners need be listed.
